{"source": "PubChem BioAssay AID540256", "about": "(National Center for Advancing Translational Sciences (NCATS), 2011)", "note": "The whole screen tested about 300,000 compounds, of which about 3,700 (1.2%) were called active. This list was built around the results that the source calls inconclusive (neither active nor inactive); the mix of calls is not that of the screen. Calls follow the shape of the full dose curve; tested in HEK293 cells. Potencies beside an inconclusive call are fits to weak or partial responses and may not hold up. Potency is read from the fitted curve at half-maximal effect."}
{"experiment": "qHTS for Inhibitors of binding or entry into cells for Lassa Virus; also: nearly all actives have a fitted effect of over 50% in size", "settings": "Lassa virus pseudotype entry inhibition, cell reporter; series mostly up to 37.9 µM"}
{"smiles": "O=C(COc1ccccc1)N1CCN(c2ccc([N+](=O)[O-])c(N3CCCCC3)c2)CC1", "Potency": "inconclusive: 23.1 µM [inhibitor, partial curve, poor fit]"}
{"smiles": "CC(C)CC(=O)c1c[nH]c(C(=O)NCc2cccs2)c1", "Potency": "inconclusive: 7.08 µM [inhibitor, full curve, poor fit]"}
{"smiles": "CN(C)S(=O)(=O)c1cccc(NC(=O)Cc2ccsc2)c1", "Potency": "active: 2.82 µM"}
{"smiles": "CC1CN(S(=O)(=O)c2cccc(C(=O)OCc3cc(=O)oc4cc(O)ccc34)c2)CC(C)O1", "note": "(stereo unspecified)", "Potency": "inconclusive: 23.1 µM [inhibitor, partial curve, poor fit]"}
{"smiles": "COc1ccc(-n2nnnc2SCC#CCO)cc1", "Potency": "inconclusive: 20.6 µM [inhibitor, single point]"}
{"smiles": "O=C1C=C(NCc2ccccc2)CCC1", "Potency": "inactive"}
{"smiles": "CC(=O)c1ccc(N2CCN(c3ccc4cc(S(=O)(=O)N5CCCCC5)ccc4n3)CC2)cc1", "Potency": "inconclusive: 2.82 µM [activator, single point]"}
{"smiles": "CCC(=O)C1=C(c2ccc(OC)c(OC)c2)N(C(=O)CC)n2c(nnc2-c2ccc(C)cc2)S1", "Potency": "inconclusive: 35.5 µM [inhibitor, single point]"}
{"smiles": "CC(NC(=O)c1cccc(S(=O)(=O)N2CCc3ccccc3C2)c1)c1ccco1", "note": "(stereo unspecified)", "Potency": "inconclusive: 22.4 µM [inhibitor, partial curve, poor fit]"}
{"smiles": "Cc1cc(C)c(S(=O)(=O)N2CCC3(CC2)OCCN3S(=O)(=O)c2cccs2)c(C)c1", "Potency": "inactive"}
{"smiles": "COc1ccc(/C=N/NC(=O)c2cc(-c3cccc(C)c3)nc3ccccc23)cc1O", "Potency": "active: 7.08 µM"}
{"smiles": "COc1ccccc1/C=C/C=N/Nc1cccc(C(=O)O)c1", "Potency": "active: 5.01 µM"}
{"smiles": "COc1ccc(NS(=O)(=O)c2ccc(N3CCCC3=O)cc2)cn1", "Potency": "inconclusive: 4.47 µM [inhibitor, full curve, poor fit]"}
{"smiles": "CC(C)CNC(=O)CCCc1ccccc1", "Potency": "inconclusive: 35.5 µM [activator, partial curve, poor fit]"}
{"smiles": "COc1ccccc1/C=C(\\NC(=O)c1cccc(C)c1)C(=O)Nc1ccccn1", "Potency": "inconclusive: 35.5 µM [inhibitor, single point]"}
{"smiles": "O=C(Nc1cnc2sccn2c1=O)c1ccc(Cl)cc1Cl", "Potency": "inconclusive: 7.3 µM [inhibitor, partial curve, poor fit]"}
{"smiles": "O=S(=O)(Nc1cccc(-n2cnnn2)c1)c1ccc(Cl)cc1", "Potency": "inconclusive: 35.5 µM [inhibitor, single point]"}
{"smiles": "Cc1ccc(S(=O)(=O)N2CCCOC2CNC(=O)C(=O)NC2CCCC2)cc1", "note": "(stereo unspecified)", "Potency": "inactive"}
{"smiles": "Cc1cc(C)c2c(=O)cc(C(=O)Nc3sc4c(c3C(=O)NCC3CCCO3)CCCC4)oc2c1", "note": "(stereo unspecified)", "Potency": "inactive"}
{"smiles": "COc1ccc(NC(=O)CSc2nnc(CNC(=O)c3cccs3)o2)c(OC)c1", "Potency": "inactive"}
{"smiles": "COc1cccc2c1C(=O)c1c(O)c3c(c(O)c1C2=O)CC(O)(C(C)=NNC(=O)c1ccc(Cl)c(Cl)c1)CC3OC1CC(N)C(O)C(C)O1", "note": "(stereo unspecified)", "Potency": "active: 0.398 µM"}
{"smiles": "Cc1ccc(C)c(S(=O)(=O)N2CCCCC2CCNC(=O)C(=O)NCc2ccccc2)c1", "note": "(stereo unspecified)", "Potency": "inactive"}
{"smiles": "Clc1ccc(/C=N/Nc2nnc(Cl)c3ccccc23)cc1", "Potency": "inconclusive: 29.1 µM [inhibitor, single point]"}
{"smiles": "O=C(CC1CCCC1)NCCS(=O)(=O)N1CCN(c2ccccc2F)CC1", "Potency": "inconclusive: 15.8 µM [inhibitor, partial curve]"}
{"smiles": "CC1CCN(C(=O)c2cc3ccccc3c(=O)o2)CC1", "Potency": "inactive"}
{"smiles": "O=C(Nn1c(-c2ccc(F)cc2)nc2ccccc2c1=O)C1CCCCC1", "Potency": "inconclusive: 4.61 µM [inhibitor, partial curve, poor fit]"}
{"smiles": "COc1ccc(C)cc1NC(=O)CC1NCCNC1=O", "note": "(stereo unspecified)", "Potency": "inactive"}
{"smiles": "COc1ccccc1N(CC(=O)NCCc1ccccc1)C(=O)CCC(=O)Nc1nccs1", "Potency": "inconclusive: 35.5 µM [inhibitor, single point]"}
{"smiles": "O=C(N/C(=C\\c1ccco1)C(=O)N1CCOCC1)c1ccccc1Cl", "Potency": "inactive"}
{"smiles": "O=C(CN1CCc2ccccc2C1)Nc1ccccc1N1CCCCCC1", "Potency": "inactive"}
{"smiles": "C=C(C)CNC(=S)Nc1nc2c(cc1C(=O)OCC)CCCC2", "Potency": "inactive"}
{"smiles": "Clc1ccc(COn2c(-c3ccc(Cl)cc3)nc3ccccc32)cc1", "Potency": "inactive"}
{"smiles": "COc1ccc(NC(=O)c2cc(-c3ccco3)on2)cc1OC", "Potency": "inactive"}
{"smiles": "CSc1cc(-c2ccc(Cl)cc2)c(C(=O)NC(C)C)s1", "Potency": "inactive"}
{"smiles": "COc1ccccc1-c1noc(-c2ccc(NC3CCCC3)c([N+](=O)[O-])c2)n1", "Potency": "inactive"}
{"smiles": "Cc1ccc(OCC(=O)N/N=C/c2cn(Cc3ccccc3)c3ccccc23)cc1", "Potency": "inconclusive: 7.31 µM [inhibitor, partial curve]"}
{"smiles": "Cc1ccccc1OCCn1cc(/C=C(\\C#N)C(=O)NCc2ccco2)c2ccccc21", "Potency": "inactive"}
{"smiles": "CN(C)/C=N/c1sc2c(c1C#N)CCC2", "Potency": "inconclusive: 11.6 µM [activator, partial curve, poor fit]"}
{"smiles": "O=C(Nc1cccc(S(=O)(=O)N2CCCCCC2)c1)c1cncc(Br)c1", "Potency": "inconclusive: 14.1 µM [inhibitor, single point]"}
{"smiles": "O=C1NC(c2ccc(Br)cc2)Nc2sc3c(c21)CCC3", "note": "(stereo unspecified)", "Potency": "inactive"}
{"smiles": "CC(=O)c1cc(-c2ccccc2)n(CC(=O)Nc2ccc(C)c(C)c2)c1C", "Potency": "inconclusive: 11.2 µM [inhibitor, partial curve, poor fit]"}
{"smiles": "Cc1nn(-c2ccccc2)c(Cl)c1/C=N/Nc1ccc(Cl)c(C(=O)O)c1", "Potency": "inconclusive: 1.58 µM [inhibitor, full curve, poor fit]"}
{"smiles": "O=C(C(=O)N1CC=C(c2ccccc2)CC1)c1c[nH]c2ccccc12", "Potency": "inconclusive: 7.08 µM [inhibitor, partial curve]"}
{"smiles": "CCc1cccc(NC(=O)Nc2ccc(Oc3ccc4nc(NC(=O)OC)[nH]c4c3)cc2)c1", "Potency": "active: 12.5 µM"}
{"smiles": "O=C(c1ccc(Cl)c(S(=O)(=O)N2CCCCC2)c1)N1CCCC1", "Potency": "inactive"}
{"smiles": "COc1ccc(OC)c(CNS(=O)(=O)c2ccc(-c3coc(C)n3)cc2)c1", "Potency": "inactive"}
{"smiles": "Cc1cccc(OCc2nnc(SCc3cc(=O)[nH]c4ccccc34)n2-c2ccccc2)c1", "Potency": "inconclusive: 35.5 µM [inhibitor, single point]"}
{"smiles": "S=C(NCCCc1ccccc1)NC1CCCCC1", "Potency": "inactive"}
{"smiles": "CCSc1nnc(NC(=O)C(C)(C)C)s1", "Potency": "inactive"}
{"smiles": "Cc1cc(SCC(=O)Nc2ccc(O)cc2)n2nc(C)c(-c3ccccc3)c2n1", "Potency": "inactive"}
{"smiles": "CCC(=O)N1CCc2cc(Br)cc(S(=O)(=O)N3CCN(c4cc(C)ccc4C)CC3)c21", "Potency": "inconclusive: 3.98 µM [activator, single point]"}
{"smiles": "COc1ccc(CCNC(=O)CSc2nc(C)nc3sccc23)cc1OC", "Potency": "inactive"}
{"smiles": "Cc1nc2cc(NC(=O)Nc3ccccc3Cl)ccc2n1C", "Potency": "inconclusive: 1.78 µM [inhibitor, full curve, poor fit]"}
{"smiles": "O=C(Nc1nccs1)c1ccc(S(=O)(=O)N2CCOCC2)cc1", "Potency": "inconclusive: 2 µM [inhibitor, partial curve, poor fit]"}
{"smiles": "CC(NC(=O)CCc1ccc(S(=O)(=O)NC2CCCCC2)cc1)c1ccccc1", "note": "(stereo unspecified)", "Potency": "inconclusive: 35.5 µM [inhibitor, partial curve, poor fit]"}
{"smiles": "CCOC(=O)C1CCCN(C(=O)c2cc(Nc3ccc(OC)cc3OC)nc3ccccc23)C1", "note": "(stereo unspecified)", "Potency": "inconclusive: 29.1 µM [inhibitor, single point]"}
{"smiles": "CNc1ccccc(C(=O)/C=C/c2ccccc2OC)c1=O", "Potency": "inconclusive: 29.1 µM [inhibitor, single point]"}
{"smiles": "CC(C)CCN=Cc1c(O)n(-c2ccccc2)c(=O)c2ccccc12", "Potency": "inconclusive: 0.73 µM [activator, partial curve, poor fit]"}
{"smiles": "CN1CCN(c2ncc3c(n2)CC(c2ccccc2F)CC3=O)CC1", "note": "(stereo unspecified)", "Potency": "inconclusive: 11.2 µM [inhibitor, partial curve]"}
{"smiles": "Cc1ccc(C(=O)N(CCN2CCCCC2)CC2CCCN(C3CCCC3)C2)s1", "note": "(stereo unspecified)", "Potency": "inconclusive: 12.6 µM [inhibitor, single point]"}
{"smiles": "CCN(CC)S(=O)(=O)c1ccc(N2CCOCC2)c(NC(=O)C2CCCC2)c1", "Potency": "inactive"}
{"smiles": "CC(NC(=O)CSc1nc2sc3c(c2c(=O)n1-c1ccccc1)CCCC3)c1ccccc1", "note": "(stereo unspecified)", "Potency": "inconclusive: 29.1 µM [inhibitor, single point]"}
{"smiles": "Cc1cc(C(C)(C)C)ccc1NC(=O)CC(C)(C)CC(=O)O", "Potency": "inactive"}
{"smiles": "O=C(O)C(Cc1ccccc1)N1C(=O)/C(=C/c2ccccc2)SC1=S", "note": "(stereo unspecified)", "Potency": "inconclusive: 8.91 µM [activator, partial curve]"}
{"smiles": "CCCCNC(=O)C1CCC(Cn2c(=O)c3sccc3n(CC(=O)Nc3ccccc3)c2=O)CC1", "note": "(stereo unspecified)", "Potency": "inactive"}
{"smiles": "Cc1c(C(=O)Nc2ccc3c(c2)OCO3)sc2nc(-c3ccccc3)cn12", "Potency": "inconclusive: 3.26 µM [activator, partial curve, poor fit]"}
{"smiles": "CC(C)N(c1ccccc1)c1ccc(NC(=O)COC(=O)CCN2C(=O)c3cccc([N+](=O)[O-])c3C2=O)cc1", "Potency": "inconclusive: 28.2 µM [inhibitor, single point]"}
{"smiles": "COc1ccc(NC(=S)NCC2CCN(c3ccc(OC)cc3)C2)cc1", "note": "(stereo unspecified)", "Potency": "inconclusive: 11.2 µM [inhibitor, partial curve, poor fit]"}
{"smiles": "O=C(Nc1ccccc1-c1ccccc1)NC1CC2CCCC(C1)N2CCc1ccccc1", "note": "(stereo unspecified)", "Potency": "inconclusive: 29.1 µM [inhibitor, single point]"}
{"smiles": "CCOC(=O)c1ccc(NC(=O)c2ccc(NS(C)(=O)=O)cc2)cc1", "Potency": "inactive"}
{"smiles": "O=C(CCC(=O)Nc1ccc(Br)cc1)N/N=C/c1cc([N+](=O)[O-])ccc1O", "Potency": "inconclusive: 22.4 µM [inhibitor, single point]"}
